# The list shows a part of the results. The list holds hits alone, and they repeat only in part.
# Amino acid sequences for entries named in this document (tags omitted).
# CALR, P27797, UniProt P27797, whole entry: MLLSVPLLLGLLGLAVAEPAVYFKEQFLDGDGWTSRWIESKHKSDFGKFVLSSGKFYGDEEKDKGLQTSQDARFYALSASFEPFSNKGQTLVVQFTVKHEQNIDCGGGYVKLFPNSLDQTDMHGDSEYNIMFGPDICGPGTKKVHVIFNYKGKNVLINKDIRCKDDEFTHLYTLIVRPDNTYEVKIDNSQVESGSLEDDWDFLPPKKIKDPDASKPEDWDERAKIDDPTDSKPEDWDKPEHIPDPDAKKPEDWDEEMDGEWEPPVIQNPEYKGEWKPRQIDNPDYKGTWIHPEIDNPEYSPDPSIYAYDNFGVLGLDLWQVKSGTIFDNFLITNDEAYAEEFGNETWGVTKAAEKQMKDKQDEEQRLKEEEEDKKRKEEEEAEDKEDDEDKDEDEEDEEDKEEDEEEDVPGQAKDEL
# CAMP, P49913, UniProt P49913, whole entry: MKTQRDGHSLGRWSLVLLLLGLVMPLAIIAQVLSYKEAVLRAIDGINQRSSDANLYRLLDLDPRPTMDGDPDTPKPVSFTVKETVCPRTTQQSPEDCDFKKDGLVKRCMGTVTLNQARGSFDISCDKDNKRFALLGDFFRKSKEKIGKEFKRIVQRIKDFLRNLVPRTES
# TPX2, Q9ULW0, UniProt Q9ULW0, whole entry: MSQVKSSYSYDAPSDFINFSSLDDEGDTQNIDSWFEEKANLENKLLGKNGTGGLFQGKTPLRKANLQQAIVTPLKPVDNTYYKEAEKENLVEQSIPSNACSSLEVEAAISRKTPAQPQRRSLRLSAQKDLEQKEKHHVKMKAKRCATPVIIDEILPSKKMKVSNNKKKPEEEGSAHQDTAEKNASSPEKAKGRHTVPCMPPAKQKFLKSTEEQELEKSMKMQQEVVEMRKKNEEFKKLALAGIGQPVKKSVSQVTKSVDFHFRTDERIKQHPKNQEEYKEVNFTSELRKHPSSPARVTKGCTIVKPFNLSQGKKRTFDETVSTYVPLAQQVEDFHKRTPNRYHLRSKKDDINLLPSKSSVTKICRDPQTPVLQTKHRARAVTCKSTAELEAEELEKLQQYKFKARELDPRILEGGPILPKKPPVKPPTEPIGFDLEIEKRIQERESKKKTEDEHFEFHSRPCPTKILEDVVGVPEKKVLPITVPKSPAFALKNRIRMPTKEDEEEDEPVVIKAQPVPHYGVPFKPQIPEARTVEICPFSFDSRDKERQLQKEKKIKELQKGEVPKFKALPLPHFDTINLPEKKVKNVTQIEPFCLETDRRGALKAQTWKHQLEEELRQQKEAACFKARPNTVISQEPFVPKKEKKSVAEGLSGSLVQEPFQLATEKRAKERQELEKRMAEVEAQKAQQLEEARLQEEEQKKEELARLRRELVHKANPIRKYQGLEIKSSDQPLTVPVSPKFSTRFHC
# How the values were obtained:
# Assay in all cases: PRISMA enrichment of interactor (LFQ) in peptide spot vs all other peptide spots (log2 fold change); higher = stronger / more specific binding of the interactor to the peptide
# C8orf33, Q9H7E9 = target: C8orf33, Q9H7E9
# Description: (§1)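 PRISMA: 15-aa overlapping tiles (offset 8 aa) of 60 microproteins, plus SOS1/GLUT1 control peptides, were spot-synthesized on cellulose membranes in triplicate. Membranes were incubated with benzonase-treated HEK293T lysate, and bound proteins were identified by LC-MS/MS with LFQ. Enrichment is the log2 fold change of each protein in one spot versus all other spots. Only interactors passing the significance cutoff are listed.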
# EIF4E, P06730 = target: EIF4E, P06730
# Description: as §1
# MRPL14, Q6P1L8 = target: MRPL14, Q6P1L8
# Description: as §1
# RAD50, Q92878 = target: RAD50, Q92878
# Description: as §1
# RNF213, Q63HN8 = target: RNF213, Q63HN8
# Description: as §1
# CA2, P00918 = target: CA2, P00918
# Description: as §1
# CARD14, Q9BXL6 = target: CARD14, Q9BXL6
# Description: as §1
# HK2, P52789 = target: HK2, P52789
# Description: as §1
# MAZ, P56270 = target: MAZ, P56270
# Description: as §1
# NAA15, Q9BXJ9 = target: NAA15, Q9BXJ9
# Description: as §1
# CAD, P27708 = target: CAD, P27708
# Description: as §1
# CHD4, Q14839 = target: CHD4, Q14839
# Description: as §1
# EMG1, Q92979 = target: EMG1, Q92979
# Description: as §1
# GPD1L, Q8N335 = target: GPD1L, Q8N335
# Description: as §1
# GTF2F2, P13984 = target: GTF2F2, P13984
# Description: as §1
# HDAC1, Q13547 = target: HDAC1, Q13547
# Description: as §1
# KIF22, Q14807 = target: KIF22, Q14807
# Description: as §1
# NAF1, Q96HR8 = target: NAF1, Q96HR8
# Description: as §1
# [1] = substrate: NSF, P46459
# Description: as §1
# PYCR2, Q96C36 = target: PYCR2, Q96C36
# Description: as §1
# SH3GL1, Q99961 = target: SH3GL1, Q99961
# Description: as §1
# UQCRFS1, P47985 = target: UQCRFS1, P47985
# Description: as §1
# WDR43, Q15061 = target: WDR43, Q15061
# Description: as §1
# CALR, P27797 = target: CALR, P27797
# Description: as §1
# CAMP, P49913 = target: CAMP, P49913
# Description: as §1
# FABP5, Q01469 = target: FABP5, Q01469
# Description: as §1
# FANCD2, Q9BXW9 = target: FANCD2, Q9BXW9
# Description: as §1
# GPAT4, Q86UL3 = target: GPAT4, Q86UL3
# Description: as §1
# GTF3C1, Q12789 = target: GTF3C1, Q12789
# Description: as §1
# HOMER1, Q86YM7 = target: HOMER1, Q86YM7
# Description: as §1
# KIF2A, O00139 = target: KIF2A, O00139
# Description: as §1
# PTDSS1, P48651 = target: PTDSS1, P48651
# Description: as §1
# RPS19BP1, Q86WX3 = target: RPS19BP1, Q86WX3
# Description: as §1
# SETD7, Q8WTS6 = target: SETD7, Q8WTS6
# Description: as §1
# SNX27, Q96L92 = target: SNX27, Q96L92
# Description: as §1
# SRSF7, Q16629 = target: SRSF7, Q16629
# Description: as §1
# TPX2, Q9ULW0 = target: TPX2, Q9ULW0
# Description: as §1
# TRA2B, P62995 = target: TRA2B, P62995
# Description: as §1
# YIPF5, Q969M3 = target: YIPF5, Q969M3
# Description: as §1
# CALU, O43852 = target: CALU, O43852
# Description: as §1
# ODF2, Q5BJF6 = target: ODF2, Q5BJF6
# Description: as §1
# ZC3H15, Q8WU90 = target: ZC3H15, Q8WU90
# Description: as §1
binder,measurement,setting,value
PGLVGRRNGRAVDRA [TUG1],PRISMA enrichment of interactor (log2),"C8orf33, Q9H7E9",4.48
same,PRISMA enrichment of interactor (log2),"EIF4E, P06730",4.21
same,PRISMA enrichment of interactor (log2),"MRPL14, Q6P1L8",6.09
same,PRISMA enrichment of interactor (log2),"RAD50, Q92878",5.44
same,PRISMA enrichment of interactor (log2),"RNF213, Q63HN8",6.31
NCHNSEVDSVRDRLP [DANCR],PRISMA enrichment of interactor (log2),"CA2, P00918",3.93
same,PRISMA enrichment of interactor (log2),"CARD14, Q9BXL6",4.9
same,PRISMA enrichment of interactor (log2),"HK2, P52789",6.49
same,PRISMA enrichment of interactor (log2),"MAZ, P56270",10.7
same,PRISMA enrichment of interactor (log2),"NAA15, Q9BXJ9",3.94
MKNTSWIRKNWLLVA [MKKS_2],PRISMA enrichment of interactor (log2),"CAD, P27708",5.83
same,PRISMA enrichment of interactor (log2),"CHD4, Q14839",5.23
same,PRISMA enrichment of interactor (log2),"EMG1, Q92979",4.71
same,PRISMA enrichment of interactor (log2),"GPD1L, Q8N335",4.96
same,PRISMA enrichment of interactor (log2),"GTF2F2, P13984",6.74
same,PRISMA enrichment of interactor (log2),"HDAC1, Q13547",5.46
same,PRISMA enrichment of interactor (log2),"KIF22, Q14807",4.8
same,PRISMA enrichment of interactor (log2),"NAF1, Q96HR8",4.36
same,PRISMA enrichment of interactor (log2),[1],4.62
same,PRISMA enrichment of interactor (log2),"PYCR2, Q96C36",4.6
same,PRISMA enrichment of interactor (log2),"SH3GL1, Q99961",4.5
same,PRISMA enrichment of interactor (log2),"UQCRFS1, P47985",7.76
same,PRISMA enrichment of interactor (log2),"WDR43, Q15061",4.04
GSSFSHKSRNATDYK [RP11-12K22.1],PRISMA enrichment of interactor (log2),"CALR, P27797",5.27
same,PRISMA enrichment of interactor (log2),"CAMP, P49913",4.94
same,PRISMA enrichment of interactor (log2),"CHD4, Q14839",6.41
same,PRISMA enrichment of interactor (log2),"FABP5, Q01469",4.91
same,PRISMA enrichment of interactor (log2),"FANCD2, Q9BXW9",4.8
same,PRISMA enrichment of interactor (log2),"GPAT4, Q86UL3",4.06
same,PRISMA enrichment of interactor (log2),"GTF3C1, Q12789",4.47
same,PRISMA enrichment of interactor (log2),"HOMER1, Q86YM7",5.55
same,PRISMA enrichment of interactor (log2),"KIF2A, O00139",5.89
same,PRISMA enrichment of interactor (log2),"PTDSS1, P48651",4.46
same,PRISMA enrichment of interactor (log2),"RPS19BP1, Q86WX3",4.7
same,PRISMA enrichment of interactor (log2),"SETD7, Q8WTS6",7.48
same,PRISMA enrichment of interactor (log2),"SNX27, Q96L92",5.49
same,PRISMA enrichment of interactor (log2),"SRSF7, Q16629",5.74
same,PRISMA enrichment of interactor (log2),"TPX2, Q9ULW0",5.19
same,PRISMA enrichment of interactor (log2),"TRA2B, P62995",5.69
same,PRISMA enrichment of interactor (log2),"YIPF5, Q969M3",4.97
QRRHGFQKRECEECK [PEX2],PRISMA enrichment of interactor (log2),"CALU, O43852",5.18
same,PRISMA enrichment of interactor (log2),"ODF2, Q5BJF6",10.3
same,PRISMA enrichment of interactor (log2),"PTDSS1, P48651",4.75
same,PRISMA enrichment of interactor (log2),"ZC3H15, Q8WU90",6.16

# Random excerpt: three records from the list
binder,measurement,setting,value
GSSFSHKSRNATDYK [RP11-12K22.1],PRISMA enrichment of interactor (log2),"YIPF5, Q969M3",4.97
same,PRISMA enrichment of interactor (log2),"SNX27, Q96L92",5.49
MKNTSWIRKNWLLVA [MKKS_2],PRISMA enrichment of interactor (log2),"GPD1L, Q8N335",4.96

# Source: the supplement of paper PMC10032668
